From US11325905B2, “Imidopiperidine compounds as inhibitors of human polynucleotide kinase phosphatase” (THE GOVERNORS OF THE UNIVERSITY OF ALBERTA, priority 2017, dated 2022)
Several values for one entry are separate records, joined by “and”; a condition that tells them apart may be missing. Equal entries are not always repeated. For at least one compound, name, drawing or mass did not settle the structure.

Legend:
[1] = In vitro release of PNKP inhibitors by dialysis method; type: physicochemical
Procedure: The in vitro release of encapsulated PNKP inhibitors was studied using a dialysis method. Each dialysis bag (Spectrapor dialysis tubing, MWCO 3.5 kDa, Spectrum Laboratories, Rancho Dominguez, Calif.), containing 2 mL of the micellar formulation or free drug dissolved in acetone, was placed into 300 mL of distilled water maintained at 37° C. in a shaking water bath (65 rpm, Julabo SW 22 shaking water bath, Seelbach, Germany). At selected time intervals, aliquots of 200 μL from the inside of the dialysis bag were collected. The amount of PNKP inhibitor was analyzed using a Varian Prostar 210 HPLC system. Reversed phase chromatography was carried out with a Microsorb-MV 5 μm C18-100 Å column (4.6 mm×250 mm) with 20 μL of sample injected and eluted under isocratic conditions with a solution of 0.1% trifluroacetic acid/acetonitrile (1:1 v/v) at a flow rate of 1.0 mL/min at room temperature.

[2] = tested on: HCT116 PNKP-knock out cells; assay: Clonogenic survival assay, radio/chemosensitization in PNKP knock-out cells; type: cell-based, human; conditions: free or encapsulated
Procedure: Cells, seeded in 60-mm dishes 24 hours in advance, were treated with PNKP inhibitors for 9-14 consecutive days at nontoxic concentrations. […] Colonies consisting of 50 cells or more were counted using an automated colony counter (Oxford Optronix, Abingdon, UK).

For `CCCCCCCCCC[C@@H](O)[C@@H]1C=CC2C(=O)N(c3ccc(N4CCNCC4)cc3)C(=O)[C@H]2N1Nc1ccc([N+](=O)[O-])cc1` (stereo partly drawn) [Compound A12B4C50], the “drug released from the dialysis bag” value ([1]; free drug, within 6 h, 37° C.) was 94.8%, the drug released ([1]; from PEO-b-PCCL micelles, within 6 h, 37° C.) was 44.5% and the drug release ([1]; from PEO-b-PCL formulations, within 24 h) was 86.2%. For the same compound, the drug released ([1]; from PEO-b-PCL micelles, within 6 h, 37° C.) was 67.2%, the cumulative release ([1]; from respective optimum micelles (PEO-b-PCCL for A12B4C50, PEO-b-PBCL for A83B4C63), within 24 h) was 54% and 54.3% and the “sensitization of HCT116 PNKP-knock out cells to radiation or irinotecan” value [2] was “failed to further sensitize”.
